Data: the supplement of paper PMC5355238
Counter-ions that a name gives are not always drawn. This is one part of the list. Most values lie at the level of the controls, where differences are scatter.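 Using flow cytometry, the assay measures the median γH2AX antibody signal in S-phase Reh cells (a human leukemia line). Each score is the number of standard deviations from the median difference of paired plate sets. Candidate hits scored above 2.5; compounds scoring below -2 lowered MK1775-induced damage.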

Tested on: Reh
Experiment: Z' of S-phase gammaH2AX difference (drug + MK1775 minus drug alone) (Z-score); higher = stronger synergistic S-phase DNA damage with MK1775
Conditions: MK1775 concentration 400 nM; first compound 10 µM; 4 h

Row | Structure (SMILES) | Z' of S-phase gammaH2AX difference (Z-score)
1 | N[C@H](CCCCCP(=O)(O)O)C(=O)O [D(-)-2-Amino-7-phosphonoheptanoic acid] + C=CCn1c(=O)c2cnc(Nc3ccc(N4CCN(C)CC4)cc3)nc2n1-c1cccc(C(C)(C)O)n1 [MK1775] | inactive: 0.0969
2 | CC(=O)Nc1ccc(OC[C@](C)(O)C(=O)Nc2ccc([N+](=O)[O-])c(C(F)(F)F)c2)cc1 [Andarine (GTX-007)] + C=CCn1c(=O)c2cnc(Nc3ccc(N4CCN(C)CC4)cc3)nc2n1-c1cccc(C(C)(C)O)n1 [MK1775] | inactive: 0.18
3 | CCCN(CCC)C1CCc2ccc(O)cc2C1 (centres undefined) [(?)-7-Hydroxy-DPAT hydrobromide] + C=CCn1c(=O)c2cnc(Nc3ccc(N4CCN(C)CC4)cc3)nc2n1-c1cccc(C(C)(C)O)n1 [MK1775] | inactive: 0.318
4 | CCCN(CCC)C1CCc2ccc(O)cc2C1 (stereo not drawn) [R-(+)-7-Hydroxy-DPAT hydrobromide] + C=CCn1c(=O)c2cnc(Nc3ccc(N4CCN(C)CC4)cc3)nc2n1-c1cccc(C(C)(C)O)n1 [MK1775] | inactive: 1.5
5 | O=C1CCCN1CC#CCN1CCCC1 [Oxotremorine sesquifumarate salt] + C=CCn1c(=O)c2cnc(Nc3ccc(N4CCN(C)CC4)cc3)nc2n1-c1cccc(C(C)(C)O)n1 [MK1775] | inactive: 0.213
6 | CCCCc1ccc(C(=O)O)nc1 [Fusaric acid] + C=CCn1c(=O)c2cnc(Nc3ccc(N4CCN(C)CC4)cc3)nc2n1-c1cccc(C(C)(C)O)n1 [MK1775] | inactive: -0.814
7 | CCCN1C[C@H](CSC)C[C@@H]2c3cccc4[nH]cc(c34)C[C@H]21 [Pergolide methanesulfonate] + C=CCn1c(=O)c2cnc(Nc3ccc(N4CCN(C)CC4)cc3)nc2n1-c1cccc(C(C)(C)O)n1 [MK1775] | inactive: -0.767
8 | N.N.[Cl][Pt][Cl] [Cisplatin] + C=CCn1c(=O)c2cnc(Nc3ccc(N4CCN(C)CC4)cc3)nc2n1-c1cccc(C(C)(C)O)n1 [MK1775] | inactive: 0.156
9 | Oc1ccc2c3c1O[C@H]1c4[nH]c5c(c4C[C@@]4(O)[C@@H](C2)N(CC2CC2)CC[C@]314)C[C@@]1(O)[C@H]2Cc3ccc(O)c4c3[C@@]1(CCN2CC1CC1)[C@H]5O4 [nor-Binaltorphimine dihydrochloride] + C=CCn1c(=O)c2cnc(Nc3ccc(N4CCN(C)CC4)cc3)nc2n1-c1cccc(C(C)(C)O)n1 [MK1775] | inactive: 1.15
10 | C[N+](C)(C)CC#CCOC(=O)Nc1cccc(Cl)c1 + C=CCn1c(=O)c2cnc(Nc3ccc(N4CCN(C)CC4)cc3)nc2n1-c1cccc(C(C)(C)O)n1 [MK1775] | inactive: 0.251
11 | CN1C[C@@H](NS(=O)(=O)N(C)C)C[C@@H]2c3cccc4c3c(cn4C)C[C@H]21 [Mesulergine hydrochloride] + C=CCn1c(=O)c2cnc(Nc3ccc(N4CCN(C)CC4)cc3)nc2n1-c1cccc(C(C)(C)O)n1 [MK1775] | inactive: -0.17
12 | Cc1ncc(CNC(=O)N(CCCl)N=O)c(N)n1 [Nimustine hydrochloride] + C=CCn1c(=O)c2cnc(Nc3ccc(N4CCN(C)CC4)cc3)nc2n1-c1cccc(C(C)(C)O)n1 [MK1775] | inactive: 0.131
13 | COc1ccc2[nH]cc(CCN)c2c1 [O-Methylserotonin hydrochloride] + C=CCn1c(=O)c2cnc(Nc3ccc(N4CCN(C)CC4)cc3)nc2n1-c1cccc(C(C)(C)O)n1 [MK1775] | inactive: -0.471
14 | COc1ccc2c3c1O[C@H]1C(=O)CC[C@@]4(O)C(C2)N(CC2CC2)CCC314 (single isomer, unassigned; (-)) [(-)-3-Methoxynaltrexone hydrochloride] + C=CCn1c(=O)c2cnc(Nc3ccc(N4CCN(C)CC4)cc3)nc2n1-c1cccc(C(C)(C)O)n1 [MK1775] | inactive: 0.446
15 | CC[C@@]1(O)C(=O)OCc2c1cc1n(c2=O)Cc2cc3ccccc3nc2-1 [(S)-(+)-Camptothecin] + C=CCn1c(=O)c2cnc(Nc3ccc(N4CCN(C)CC4)cc3)nc2n1-c1cccc(C(C)(C)O)n1 [MK1775] | active: 11.1
16 | Clc1cccc(N2CCNCC2)c1 [1-(3-Chlorophenyl)piperazine dihydrochloride] + C=CCn1c(=O)c2cnc(Nc3ccc(N4CCN(C)CC4)cc3)nc2n1-c1cccc(C(C)(C)O)n1 [MK1775] | inactive: 0.484
17 | C#C[C@]1(O)CC[C@H]2[C@@H]3CCC4=Cc5nc6nc7ccccc7n6cc5C[C@]4(C)[C@H]3CC[C@@]21C + C=CCn1c(=O)c2cnc(Nc3ccc(N4CCN(C)CC4)cc3)nc2n1-c1cccc(C(C)(C)O)n1 [MK1775] | inactive: -0.218

Copied from above: nos. 16 to 17
Row | Structure (SMILES) | Z' of S-phase gammaH2AX difference (Z-score)
16 | Clc1cccc(N2CCNCC2)c1 [1-(3-Chlorophenyl)piperazine dihydrochloride] + C=CCn1c(=O)c2cnc(Nc3ccc(N4CCN(C)CC4)cc3)nc2n1-c1cccc(C(C)(C)O)n1 [MK1775] | inactive: 0.484
17 | C#C[C@]1(O)CC[C@H]2[C@@H]3CCC4=Cc5nc6nc7ccccc7n6cc5C[C@]4(C)[C@H]3CC[C@@]21C + C=CCn1c(=O)c2cnc(Nc3ccc(N4CCN(C)CC4)cc3)nc2n1-c1cccc(C(C)(C)O)n1 [MK1775] | inactive: -0.218

More results:

Row | Structure (SMILES) | Z' of S-phase gammaH2AX difference (Z-score)
18 | c1ccc2nc(N3CCNCC3)ccc2c1 [Quipazine dimaleate] + C=CCn1c(=O)c2cnc(Nc3ccc(N4CCN(C)CC4)cc3)nc2n1-c1cccc(C(C)(C)O)n1 [MK1775] | inactive: 0.539
19 | C[N+](C)(C)CCCCCCCCCC[N+](C)(C)C [Decamethonium dibromide] + C=CCn1c(=O)c2cnc(Nc3ccc(N4CCN(C)CC4)cc3)nc2n1-c1cccc(C(C)(C)O)n1 [MK1775] | inactive: 0.44
20 | CC1C2Cc3ccc(O)cc3C1(C)CCN2CC1CC1 (single isomer, unassigned; (+)) [(+)-Cyclazocine] + C=CCn1c(=O)c2cnc(Nc3ccc(N4CCN(C)CC4)cc3)nc2n1-c1cccc(C(C)(C)O)n1 [MK1775] | inactive: -0.11
21 | CN1C[C@H](C(=O)N[C@]2(C)O[C@@]3(O)[C@@H]4CCCN4C(=O)[C@H](Cc4ccccc4)N3C2=O)C[C@@H]2c3cccc4[nH]cc(c34)C[C@H]21 [Dihydroergotamine methanesulfonate] + C=CCn1c(=O)c2cnc(Nc3ccc(N4CCN(C)CC4)cc3)nc2n1-c1cccc(C(C)(C)O)n1 [MK1775] | inactive: 0.338
22 | O=C1NCN(c2ccccc2)C12CCN(CC1COc3ccccc3O1)CC2 (centres undefined) [Spiroxatrine] + C=CCn1c(=O)c2cnc(Nc3ccc(N4CCN(C)CC4)cc3)nc2n1-c1cccc(C(C)(C)O)n1 [MK1775] | inactive: -0.17
23 | C[N+]1(C)[C@@H]2CC[C@H]1C[C@@H](OC(=O)C(CO)c1ccccc1)C2 (some centres undefined) [Atropine methyl nitrate] + C=CCn1c(=O)c2cnc(Nc3ccc(N4CCN(C)CC4)cc3)nc2n1-c1cccc(C(C)(C)O)n1 [MK1775] | inactive: -0.0501
24 | C[N+]1(C)[C@@H]2CC[C@H]1C[C@@H](OC(=O)C(CO)c1ccccc1)C2 (some centres undefined) [Atropine methyl bromide] + C=CCn1c(=O)c2cnc(Nc3ccc(N4CCN(C)CC4)cc3)nc2n1-c1cccc(C(C)(C)O)n1 [MK1775] | inactive: 0.244
25 | CC(CCc1ccccc1)NC(C)C(O)c1ccc(O)cc1 (centres undefined) [Nylidrin hydrochloride] + C=CCn1c(=O)c2cnc(Nc3ccc(N4CCN(C)CC4)cc3)nc2n1-c1cccc(C(C)(C)O)n1 [MK1775] | inactive: -0.243
26 | Cc1c(C(=O)c2cccc3ccccc23)c2cccc3c2n1[C@H](CN1CCOCC1)CO3 [( R)-(+)-WIN 55,212-2 mesylate] + C=CCn1c(=O)c2cnc(Nc3ccc(N4CCN(C)CC4)cc3)nc2n1-c1cccc(C(C)(C)O)n1 [MK1775] | inactive: -1.13
27 | CCN(CC)C(=O)NC1C=C2c3cccc4[nH]cc(c34)CC2N(C)C1 (stereo not drawn) [S-(-)-Lisuride] + C=CCn1c(=O)c2cnc(Nc3ccc(N4CCN(C)CC4)cc3)nc2n1-c1cccc(C(C)(C)O)n1 [MK1775] | inactive: 0.291
28 | CC(N)Cc1c[nH]c2ccc(OCc3cccs3)cc12 (centres undefined) + C=CCn1c(=O)c2cnc(Nc3ccc(N4CCN(C)CC4)cc3)nc2n1-c1cccc(C(C)(C)O)n1 [MK1775] | inactive: -0.504
29 | CN1CCC(c2c[nH]c3ccc(O)cc23)CC1 + C=CCn1c(=O)c2cnc(Nc3ccc(N4CCN(C)CC4)cc3)nc2n1-c1cccc(C(C)(C)O)n1 [MK1775] | inactive: -0.725
30 | CC(C)[C@@]1(NC(=O)[C@@H]2C[C@@H]3c4cccc5[nH]cc(c45)C[C@H]3N(C)C2)O[C@@]2(O)[C@@H]3CCCN3C(=O)[C@H](Cc3ccccc3)N2C1=O [Dihydroergocristine methanesulfonate] + C=CCn1c(=O)c2cnc(Nc3ccc(N4CCN(C)CC4)cc3)nc2n1-c1cccc(C(C)(C)O)n1 [MK1775] | inactive: -0.872
31 | CC1Cc2cc3c(cc2C(c2ccc(N)cc2)=NN1)OCO3 (centres undefined) + C=CCn1c(=O)c2cnc(Nc3ccc(N4CCN(C)CC4)cc3)nc2n1-c1cccc(C(C)(C)O)n1 [MK1775] | inactive: -0.352
32 | C[N+](C)(C)CC#CCN1CCCC1=O [Oxotremorine methiodide] + C=CCn1c(=O)c2cnc(Nc3ccc(N4CCN(C)CC4)cc3)nc2n1-c1cccc(C(C)(C)O)n1 [MK1775] | inactive: -0.184
33 | NC(=O)c1ccc(OCC(O)CN2CC=C(c3ccc(F)cc3)CC2)cc1 (centres undefined) + C=CCn1c(=O)c2cnc(Nc3ccc(N4CCN(C)CC4)cc3)nc2n1-c1cccc(C(C)(C)O)n1 [MK1775] | inactive: -0.106
34 | COc1ccc(CNC(=O)/C=C/c2ccc3[nH]cc(CCN(C)C)c3c2)cc1 + C=CCn1c(=O)c2cnc(Nc3ccc(N4CCN(C)CC4)cc3)nc2n1-c1cccc(C(C)(C)O)n1 [MK1775] | inactive: -0.207
